Laboratory results as given in doi:10.1101/2024.02.27.582368 (bioRxiv, 2024).
No constants are given. Whether binding was seen depends on the method and setting. Some entries that bind do so weakly or less than the wild type.

How the values were obtained:
[1] = target: N-domain39-190 of BC1280 (Bacillus cereus ATCC14579) (UniProt Q81GC7); test: dynamic light scattering
[2] = target: N-domain39-190 of BC1280 (Bacillus cereus ATCC14579) (UniProt Q81GC7); test: thioflavin T aggregation kinetics
[3] = target: N-domain39-190 of BC1280 (Bacillus cereus ATCC14579) (UniProt Q81GC7); test: X-ray diffraction of ultracentrifuged assemblies
[4] = target: N-domain39-190 of BC1280 (Bacillus cereus ATCC14579) (UniProt Q81GC7); test: SEC

binding [1]: binds
binding [2]: binds
binding [3]: binds
binding [4]: binds
B1: N-domain39-190 of BC1280 (domain or fragment, Bacillus cereus ATCC14579, UniProt Q81GC7 39-190, looked up)
chain: AAFIHETKVEATLSTAIIFPKTVNTLKEQSEKHKQFIEREYGTMKGKLKATSIEEIKQAISVWQQGREKIVAEKEALQNVYTEIEAPYNQIQEELKVNKDESMQQVSIYVNEGFRSIKEKRDYIEKEISLKAIDEQIQALQQQLNVAIEAEG
